No constants are given. Whether binding was seen depends on the method and setting. In cells and extracts the contact can be indirect. Some results given as binding are weak or reduced against the parent protein; the word gives no strength.
Molecular target: T1, Sirt1 (endogenous, porcine adipocytes) (pig (endogenous in porcine adipocytes)) (UniProt A7LKB1)
T1 sequence: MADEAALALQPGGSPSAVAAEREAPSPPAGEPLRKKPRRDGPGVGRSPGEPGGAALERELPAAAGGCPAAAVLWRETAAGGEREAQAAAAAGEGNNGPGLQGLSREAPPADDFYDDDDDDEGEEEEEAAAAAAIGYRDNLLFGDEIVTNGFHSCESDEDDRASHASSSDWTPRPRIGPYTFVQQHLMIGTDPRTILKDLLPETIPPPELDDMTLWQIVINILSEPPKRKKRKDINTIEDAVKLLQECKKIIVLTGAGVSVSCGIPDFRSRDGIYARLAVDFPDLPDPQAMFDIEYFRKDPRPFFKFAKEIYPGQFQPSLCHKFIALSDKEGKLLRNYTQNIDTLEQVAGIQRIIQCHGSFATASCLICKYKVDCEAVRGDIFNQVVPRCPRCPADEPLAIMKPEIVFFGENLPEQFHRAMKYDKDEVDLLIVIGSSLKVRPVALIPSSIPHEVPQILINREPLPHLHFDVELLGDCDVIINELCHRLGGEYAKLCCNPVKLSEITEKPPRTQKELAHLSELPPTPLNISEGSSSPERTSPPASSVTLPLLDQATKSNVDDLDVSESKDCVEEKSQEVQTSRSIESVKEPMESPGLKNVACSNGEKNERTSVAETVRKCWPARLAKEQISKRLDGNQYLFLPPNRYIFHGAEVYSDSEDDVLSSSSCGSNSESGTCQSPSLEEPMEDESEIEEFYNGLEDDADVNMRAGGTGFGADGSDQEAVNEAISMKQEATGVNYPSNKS
Experiment: co-IP; endogenous proteins; 10 mg total porcine adipocyte lysate with 4 µg antibody overnight, captured on goat anti-rabbit or anti-mouse IgG magnetic beads for 4 h; washed 4 times with lysis buffer; Western blot; Akt2 with Sirt1 over the days of differentiation, the other pairs at day 8 after induction

Protein sequences, listed by entry. Tags and fused reporters are not part of them.
UniProt F1RNW6: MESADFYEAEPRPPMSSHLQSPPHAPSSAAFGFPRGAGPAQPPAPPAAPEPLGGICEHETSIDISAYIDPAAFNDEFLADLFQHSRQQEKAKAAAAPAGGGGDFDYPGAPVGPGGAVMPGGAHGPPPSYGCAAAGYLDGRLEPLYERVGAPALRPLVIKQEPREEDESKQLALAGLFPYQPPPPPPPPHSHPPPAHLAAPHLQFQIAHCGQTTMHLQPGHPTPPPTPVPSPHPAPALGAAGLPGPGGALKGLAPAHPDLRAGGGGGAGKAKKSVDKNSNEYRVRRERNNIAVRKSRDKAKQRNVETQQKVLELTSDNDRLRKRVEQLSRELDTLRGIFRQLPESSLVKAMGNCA

C/EBPα (endogenous, porcine adipocytes) (from UniProt F1RNW6 1-354)
binding: binds
